Assay results taken from PMC5245786.
No constants are given. Whether binding was seen depends on the method and setting. Binding can be weak; no strength is given.

Target: T1, SodA (S. aureus (endogenous in strain Newman)) (UniProt P0A0J3)
T1 sequence: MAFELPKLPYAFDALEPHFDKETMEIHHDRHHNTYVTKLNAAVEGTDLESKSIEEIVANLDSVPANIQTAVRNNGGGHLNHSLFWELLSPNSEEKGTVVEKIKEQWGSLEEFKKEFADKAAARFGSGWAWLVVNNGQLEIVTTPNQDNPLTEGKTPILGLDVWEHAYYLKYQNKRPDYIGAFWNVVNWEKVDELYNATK
Assay: native gel or EMSA; cell lysates of wild type S. aureus (grown with or without CP and 0.1 mM PQ), normalised to total protein, resolved on 10% native polyacrylamide gel; bands seen by in-gel nitro blue tetrazolium SOD activity stain

## SodM (S. aureus (endogenous in strain Newman)) (enzyme)
  binding: binds
